## Percent effect of library compounds

Measurements from “University of Dundee, Small-Polar-MMV Screening Library” (2021), ChEMBL document CHEMBL3988442.

The filed quantity is “Percent Effect” (%).
The record does not define 0% and 100%; most values in the screen are far below 50% and negative numbers occur (in some assays of this library far below -100).
Compounds were drawn at random from those tested, without regard to their results.
Two or more numbers in one place are separate tests of the same structure; such repeats can differ widely.

A: 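Whole-cell growth test on Mycobacterium tuberculosis, read after 3 days in glucose-containing 7H9 medium; the read-out is not stated. Tested at 50 µM. The record gives no direction; compounds that gave an IC50 in retests scored well above the rest, so higher reads as more growth inhibition. About 69,000 compounds were tested under these conditions; 1.1% (about 760) showed 50% or more at least once.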
B: 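Whole-cell growth test on Mycobacterium tuberculosis, read after 4 days in a medium based on cholesterol and the lipid DPPC; the read-out is not stated. Concentration: 50 µM. Direction is inferred from retests: higher values go with more growth inhibition. About 69,000 compounds were tested under these conditions; 0.54% (about 370) showed 50% or more at least once.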

compound: Cc1cc2c(=O)n3c(nc2s1)CCN(Cc1cncn1C)CC3.Cl
A: 19.63
B: 5.08

compound: CC(C)c1cc(NC(=O)CN2CCc3ccccc3C2)on1
A: 8.972
B: -9.197

compound: CCCc1nc(C(=O)NCCCn2nnc3ccccc32)cs1
A: 31.05
B: 24.46

compound: CC(=O)N1CCN(C(=O)CCc2cc(Br)cs2)CC1
A: -15.78
B: 12.08 and 5.039

compound: NC(=O)c1cnn2c1NCC(CNCCCc1ccccc1)C2 (centres unmarked)
A: 13.05
B: 1.317

compound: O=c1[nH]c2nc(NC3CC3)ncc2c(=O)n1-c1ccc(F)cc1
A: 6.104
B: 6.052

compound: CC1CCCN(CCNC(=O)c2cncnc2C(C)C)C1 (centres unmarked)
A: -1.794 and -5.541
B: -13.52

compound: Cc1nccn1C1CCCN(C(=O)c2ccc3cc[nH]c3c2)C1 (centres unmarked)
A: 4.394
B: -7.912

compound: COc1cccc(COC(C)C(=O)N(C)Cc2nnc3n2CCC3)c1 (centres unmarked)
A: -0.7517 and -38.49
B: -26.74

compound: CCCC(NC(=O)c1cscc1C)c1nnn[nH]1 (centres unmarked)
A: 18.92
B: -13.21 and 3.89

compound: Cn1ccnc1CN1CC[C@@H](NS(C)(=O)=O)[C@@H]1Cc1cccnc1
A: -20.13
B: -15.81

compound: CC(C)N1CCCC(C(=O)N(C)CCCc2cnn(C)c2)C1 (centres unmarked)
A: 14.01
B: -8.484

compound: Cc1cnc(N2CCc3ncnc(N4CCN(C)CC4)c3CC2)nc1.O=C(O)C(F)(F)F
A: -24.13 and -4.782
B: -36.53

compound: O=C(NCc1ccncc1)N(Cc1ccc(F)cc1F)C1CC1
A: -5.006
B: 15.81 and 15.37

compound: CC(c1ccccc1Cl)N(C(=O)CSCC(N)=O)C1CC1 (centres unmarked)
A: -17.73
B: -15.1

compound: Cc1csc(CCNC(=O)c2ccc(N(C)C)c(F)c2)n1
A: -6.791 and 6.493
B: -13.41

compound: CN1CCCC(N2CCN(c3cc(C(F)(F)F)ccn3)CC2)C1 (centres unmarked)
A: 10.11 and 12.86
B: 12.39

compound: O=C(O)C(F)(F)F.[H][C@@]12COC[C@]1(COc1ccccn1)CN(S(=O)(=O)C1CC1)C2
A: 6.684
B: -26.78

compound: CSCCC(=O)N1CCc2c(ncnc2N2CCOCC2)C1
A: -11.83
B: -22.58

compound: Cn1nc(CNC(=O)CN2C(=O)CCC2=O)cc1C1CC1
A: 22.42 and -4.017
B: 11.89

compound: [H][C@]12CCCCN1CCC[C@H]2CNC(=O)CCn1ccc2cc(Br)ccc21
A: 4.995
B: -1.07

compound: COc1cccc(CN2CCCC2c2ccc[nH]2)c1 (centres unmarked)
A: 17.98 and 11.12
B: 8.723

compound: COCc1ccc(CNC(=O)CN2CCc3ccccc32)cc1
A: 3.516 and 5.633
B: -7.044

compound: CC(C)n1ccnc1CN1CCCN(C(=O)c2cc(Cl)c[nH]2)CC1
A: -13.67
B: -14.28

compound: Cc1nc(C(=O)Nc2cc(N3CCNC3=O)ccc2Cl)cs1
A: 1.522
B: 13.19

compound: CN(C)C(=O)c1noc2c1CN(C(=O)CCC1CCCCN1C)CC2 (centres unmarked)
A: -16.69
B: -2.161 and -6.429

compound: N[C@H]1CN(C(=O)c2ccccc2OCc2ccccc2)C[C@@H]1C1CC1
A: 5.696 and -9.008
B: 18.49

compound: COC1CCN(c2ccc(NC(=O)Cn3cccc3)cc2)CC1
A: -0.4067
B: -3.725

compound: Cc1ccn(-c2ccc(C(=O)N3CCCC(n4ccnc4)C3)cc2)n1 (centres unmarked)
A: 19.15
B: 12.25

compound: O=C(NCCc1ccc2c(c1)OCO2)C1CCCN(Cc2ccco2)C1 (centres unmarked)
A: 0.8291
B: -6.368 and 8.495

Some entries from above, unchanged:

compound	A	B
Cc1cnc(N2CCc3ncnc(N4CCN(C)CC4)c3CC2)nc1.O=C(O)C(F)(F)F	-24.13 and -4.782	-36.53
Cn1nc(CNC(=O)CN2C(=O)CCC2=O)cc1C1CC1	22.42 and -4.017	11.89
Cn1ccnc1CN1CC[C@@H](NS(C)(=O)=O)[C@@H]1Cc1cccnc1	-20.13	-15.81
O=C(NCc1ccncc1)N(Cc1ccc(F)cc1F)C1CC1	-5.006	15.81 and 15.37